Assay results published in publication doi:10.1101/2022.11.15.516593.
Results are given in words; binding and its absence hold for the method and conditions named. Some results given as binding are weak or reduced against the parent protein; the word gives no strength. Sequences can lack the tags named with a protein.

Target: T1, EMBRYONIC FLOWER 2 (EMF2), yeast two-hybrid fusion (Arabidopsis thaliana) (UniProt Q8L6Y4)
T1 sequence: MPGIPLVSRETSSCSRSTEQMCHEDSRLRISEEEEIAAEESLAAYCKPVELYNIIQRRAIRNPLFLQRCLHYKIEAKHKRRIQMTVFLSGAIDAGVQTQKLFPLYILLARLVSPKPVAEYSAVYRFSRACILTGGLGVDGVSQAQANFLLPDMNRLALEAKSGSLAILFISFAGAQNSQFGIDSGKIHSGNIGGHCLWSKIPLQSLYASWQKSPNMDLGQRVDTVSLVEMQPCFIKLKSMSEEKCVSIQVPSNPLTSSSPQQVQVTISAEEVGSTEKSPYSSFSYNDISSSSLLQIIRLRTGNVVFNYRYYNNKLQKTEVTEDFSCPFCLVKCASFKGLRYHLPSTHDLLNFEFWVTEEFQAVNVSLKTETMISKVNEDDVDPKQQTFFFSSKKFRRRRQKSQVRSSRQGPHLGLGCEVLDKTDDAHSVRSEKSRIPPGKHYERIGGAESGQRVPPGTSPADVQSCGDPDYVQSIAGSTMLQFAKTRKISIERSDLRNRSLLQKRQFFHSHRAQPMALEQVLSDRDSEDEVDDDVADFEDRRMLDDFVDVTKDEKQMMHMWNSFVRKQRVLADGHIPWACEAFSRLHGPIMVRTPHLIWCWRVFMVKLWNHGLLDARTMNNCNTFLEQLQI
Assay: two-hybrid

B1: UBIQUITIN SPECIFIC PROTEASE 5 (UBP5), yeast two-hybrid fusion (enzyme, UniProt O22207 1-924)
chain: MAEVSMGSSSSSTDLSPEEERVFIRDIAIAAEANSKEGDTFYLITQRWWQEWIEYVNQDQPCNTNDGSSLSEHCDSPGSSTLKKPSRIDNSDLIYDSSLEDPSNTSEIIETLQEGRDYVLLPQEVWNQLRSWYGGGPTLARRVISSGLSQTELAVEVYPLRLQLLLMPKSDHSAIRISKKETIRELHRRACEIFDLDSEHVRIWDYYGHQKYSLMNDLDKTLDDANLQMDQDILVEVLDINGTLSSAHIQSAQENGLVDGDSTSILIEPSKSSLAAAGGFSSSRNAFRTGSVEVSQSFDNTYSSTGVTTRGSTAGLTGLLNLGNTCFMNSAIQCLVHTPEFASYFQEDYHQEINWQNPLGMVGELALAFGDLLRKLWAPGRTPIAPRPFKAKLARFAPQFSGYNQHDSQELLAFLLDGLHEDLNRVKHKPYINSRDADGRPDEEVADEFWKNHIARNDSIIVDVCQGQYKSTLVCPICNKVSVTFDPFMYLSLPLQFNTTRAITVTVFSCDKTALPSTITVNVSKQGRCRDLIQALTNACSLKQSEELKLAEIRNNFIHRLFEDPLIPLSSIKDDDHLAAYKLSKSSENTTLLRLVLRRRDQKAGERESTVQLKPCGTPLLSSASCGDALTKGKIHCLVQNMLSPFRREESVGKKGNSDSSIPERRSARFNNTEEEDKVGGLKKAKKSNSSDLGASKLSLQLIDEDNKTINLPDNEAEAMKLPSSATVTIYLDWTPELSGMYDITCLESLPEVLKYGPTTKKARSEPLSLYACLEAFLREEPLVPDEMWFCPQCNERRQASKKLDLWRLPEVLVIHLKRFSYSRSMKHKLETFVNFPIHDLDLTKYVANKNLSQPQLYELYALTNHYGGMGSGHYTAHIKLLDDSRWYNFDDSHISHINEDDVKSGAAYVLFYRRKSDAGGKMT
With B1 the binding was “binds”.
